Data taken from the supplement of paper PMC7877785.
± gives the uncertainty stated by the source. Many of these values have a large error.

Test: self-splicing fitness, log relative to wild type (ln ratio); higher = more splicing; Tetrahymena group I intron in knt gene, E. coli kanamycin selection, DiMSum; sequences stand for … in CUCUCU…GGAGGGAAAAGUUAUCAGGCAUGCACCUGGUAGCUAGUCUUUAAACCAAUAGAUUGCAUCGGUUUAAAAGGCAAGACCGUCAAAUUGCGGGAAAGGGGUCAACAGCCGUUCAGUACCAAGUCUCAGGGGAAACUUUGAGAUGGCCUUGCAAAGGGUAUGGUAAUAAGCUGACGGACAUGGUCCUAACCACGCAGCCAAGUCCUAAGUCAACAGAUCUUCUGUUGAUAUGGAUGCAGUUCACAGACUAAAUGUCGGUCGGGGAAGAUGUAUUCUUCUCAUAAGAUAUAGUCGGACCUCUCCUUAAUGGGAGCUAGCGGAUGAAGUGAUGCAACACUGGAGCCGCUGGGAACUAAUUUGUAUGCGAAAGUAUAUUGAUUAGUUUUGGAGUACUCGUGGUCG
Summary of the method: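 Fitness was computed with DiMSum as the error-weighted combination of replicate fold changes, kanamycin versus none, each normalised to wild type. The library randomised all eight intron nucleotides of the P1ex region, with the intron placed in the knt kanamycin-resistance gene on pET-22b(+) in E. coli BL21(DE3). Six replicate transformations were grown overnight at 37°C or 30°C on LB agar with or without 25 μg/mL kanamycin, plus 100 μg/mL carbenicillin, 50 μM IPTG and 0.2% rhamnose. Pooled colonies were amplicon-sequenced on an Illumina HiSeq 2500.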

Row | Sequence | self-splicing fitness (ln) (30 °C) | self-splicing fitness (ln) (37 °C)
1 | CGGUAGCAAUAUUACGAGGC | -3.13 ± 0.74 | –
2 | UCUGAGCAAUAUUACGUGCC | -3.52 ± 0.74 | –
3 | CAUGAGCAAUAUUACGCACC | -1.64 ± 0.6 | -0.12 ± 0.74
4 | UCCCAGCAAUAUUACGAUAC | -2.17 ± 0.19 | -2.45 ± 0.44
5 | UUGGAGCAAUAUUACGAAUC | -4.03 ± 0.52 | –
6 | UGACAGCAAUAUUACGCGGC | -6.56 ± 1 | -2.23 ± 1.1
7 | ACAAAGCAAUAUUACGCCAC | – | -3.2 ± 0.6
8 | UUGGAGCAAUAUUACGUCUU | -3.05 ± 0.61 | –
9 | GCGGAGCAAUAUUACGCCAA | – | -1.91 ± 0.78
10 | CGAGAGCAAUAUUACGACAC | – | -1.98 ± 1.1
11 | UUGCAGCAAUAUUACGAGAC | -3.87 ± 0.59 | –
12 | AUCGAGCAAUAUUACGUUUC | -4.74 ± 0.59 | –
13 | UUUGAGCAAUAUUACGGGUA | – | -2.24 ± 0.5
14 | CUGCAGCAAUAUUACGUCAU | -2.86 ± 0.14 | -2.06 ± 0.13
15 | UGUCAGCAAUAUUACGCCUC | – | 0.000402 ± 0.87
16 | CCGGAGCAAUAUUACGCUAG | -3.07 ± 0.21 | -2.33 ± 0.26
17 | GAAGAGCAAUAUUACGGGCC | – | -2.03 ± 0.56
18 | CCCAAGCAAUAUUACGAACC | -2.18 ± 0.84 | –
19 | CGUUAGCAAUAUUACGUCAC | -2.67 ± 0.55 | 0.859 ± 0.64
20 | GUUCAGCAAUAUUACGUGCU | -4.43 ± 0.72 | –
21 | UCGGAGCAAUAUUACGCAUA | -1.93 ± 1.2 | -2.3 ± 0.55

Exported with tabs: entries from further up.
Row	Sequence	self-splicing fitness (ln) (30 °C)	self-splicing fitness (ln) (37 °C)
9	GCGGAGCAAUAUUACGCCAA	–	-1.91 ± 0.78
10	CGAGAGCAAUAUUACGACAC	–	-1.98 ± 1.1
11	UUGCAGCAAUAUUACGAGAC	-3.87 ± 0.59	–
12	AUCGAGCAAUAUUACGUUUC	-4.74 ± 0.59	–
13	UUUGAGCAAUAUUACGGGUA	–	-2.24 ± 0.5
14	CUGCAGCAAUAUUACGUCAU	-2.86 ± 0.14	-2.06 ± 0.13
15	UGUCAGCAAUAUUACGCCUC	–	0.000402 ± 0.87
16	CCGGAGCAAUAUUACGCUAG	-3.07 ± 0.21	-2.33 ± 0.26
17	GAAGAGCAAUAUUACGGGCC	–	-2.03 ± 0.56
18	CCCAAGCAAUAUUACGAACC	-2.18 ± 0.84	–
19	CGUUAGCAAUAUUACGUCAC	-2.67 ± 0.55	0.859 ± 0.64

Next part.

Row | Sequence | self-splicing fitness (ln) (30 °C) | self-splicing fitness (ln) (37 °C)
22 | CGGCAGCAAUAUUACGUAAC | – | -1.78 ± 0.67
23 | UUCGAGCAAUAUUACGGACA | -2.7 ± 0.22 | -1.79 ± 0.17
24 | ACCAAGCAAUAUUACGGUAU | -3.45 ± 0.13 | -0.475 ± 0.094
25 | CUCUAGCAAUAUUACGACUA | -2.83 ± 0.57 | –
26 | AAAUAGCAAUAUUACGAUUG | -2.16 ± 0.15 | -1.31 ± 0.18
27 | GAGAAGCAAUAUUACGCCGC | -1.96 ± 1.2 | –
28 | AGGAAGCAAUAUUACGUUGA | -3.28 ± 0.54 | –
29 | UUCCAGCAAUAUUACGAUGG | – | -4.67 ± 0.72
30 | CGUUAGCAAUAUUACGCGCG | -1.97 ± 1.2 | -1.09 ± 0.92
31 | GUCGAGCAAUAUUACGGCCG | -1.96 ± 0.57 | -0.351 ± 0.51
32 | CCAAAGCAAUAUUACGGACC | -6.08 ± 1 | –
33 | AGAGAGCAAUAUUACGCUCG | -0.167 ± 1.2 | -0.879 ± 0.57
34 | GAGUAGCAAUAUUACGGUAG | – | -1.83 ± 0.65
35 | GCAGAGCAAUAUUACGAGGU | -3.19 ± 0.82 | –
36 | CACGAGCAAUAUUACGGGCA | – | -2.94 ± 1
37 | CAAGAGCAAUAUUACGUAGC | -4.03 ± 0.73 | –
38 | GGAGAGCAAUAUUACGCCCU | – | -1.11 ± 0.65
39 | UGACAGCAAUAUUACGGCCG | -0.739 ± 0.14 | 0.186 ± 0.19
40 | GGGUAGCAAUAUUACGCGCU | -3.35 ± 1 | -0.116 ± 0.59
41 | UGUCAGCAAUAUUACGUUGC | -3.38 ± 0.61 | –
42 | UGCGAGCAAUAUUACGAGCU | -1.32 ± 1.4 | -1.29 ± 0.63

Row | Sequence | self-splicing fitness (ln) (30 °C) | self-splicing fitness (ln) (37 °C)
43 | UCGAAGCAAUAUUACGAGCA | -1.77 ± 0.14 | 0.162 ± 0.14
44 | ACGGAGCAAUAUUACGUGCU | – | -3.77 ± 0.73
45 | GCUGAGCAAUAUUACGCCGC | – | -2.56 ± 0.75
46 | UACGAGCAAUAUUACGGGCU | -4.87 ± 0.72 | –
47 | AUUGAGCAAUAUUACGCCGC | – | -1.7 ± 0.67
48 | GUCGAGCAAUAUUACGGCUC | -3.67 ± 0.73 | -2.34 ± 0.66
49 | GAGUAGCAAUAUUACGAAGA | – | -2.76 ± 0.54
50 | GUUAAGCAAUAUUACGUACC | – | -1.11 ± 0.9
51 | AGAGAGCAAUAUUACGUGUC | -4.79 ± 0.51 | –
52 | GAGUAGCAAUAUUACGAGAA | -2.15 ± 0.83 | -1.64 ± 0.7
53 | CGUAAGCAAUAUUACGAGGA | -3.34 ± 1.1 | –
54 | AGCGAGCAAUAUUACGUGAC | – | -3.76 ± 0.59
55 | CGUCAGCAAUAUUACGCCAC | -4.53 ± 0.51 | –
56 | AGUAAGCAAUAUUACGAAAC | -3.94 ± 0.36 | -2.65 ± 0.53
57 | GUUUAGCAAUAUUACGAGUA | -3.19 ± 0.53 | -3.24 ± 0.6
58 | AUAUAGCAAUAUUACGAUCA | -1.4 ± 0.16 | -0.365 ± 0.22
59 | AAACAGCAAUAUUACGUGCC | -2 ± 0.1 | -1.31 ± 0.13
60 | UAGUAGCAAUAUUACGACAC | -3.28 ± 0.61 | –
61 | CCCUAGCAAUAUUACGGACC | – | -1.61 ± 0.84
